This experiment in a line: qHTS Assay for Lipid Storage Modulators in Drosophila S3 Cells.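 On cell number change: cells counted by Cell Tracker Red CMTPX staining in the red channel.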 The conditions noted are these: BODIPY lipid droplet fluorescence, 18-24 h; for cell number change: measured here: cell count max response, cells fed with added oleic acid. The method in brief:
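Drosophila S3 cells got compounds at several concentrations plus oleic acid (400 uM solution). Laser-scanning cytometry with 488 nm excitation read lipid droplets at 500-530 nm and cells at 575-640 nm. Percent activity was relative to 20 uM Triacsin C.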
(In qHTS, concentration-response curves come from the screen itself.)

Setting [1] is: measured here: lipid fluorescence (Fed channel) AC50, cells fed with added oleic acid.
[2] abbreviates: measured here: cell number channel AC50, cells fed with added oleic acid.

This is one part of the list. Further columns of the screen follow, without active or inactive calls. Most of these compounds were active or inconclusive in the main read-out, so they are no random draw. Words in brackets tell the shape of the fitted curve; partial curves, single points and poor fits give uncertain potencies.

The values that follow come from PubChem BioAssay AID2685 (National Center for Advancing Translational Sciences (NCATS), 2010).

Broadly, the AC50 is the concentration at which the activity in the assay is half-maximal. High values mean activity only at high concentration, low ones activity at low concentration. For `CC(O)C(O)C(O)C(O)C1NCCS1` (stereo unspecified), the cell number change was -11.9%. Moreover, the concentration at half-maximal activity (AC50) under setting [1] is 20.6 µM [falling, single point].
Turning to `N#C/C(=C\c1ccc(N2CCOCC2)o1)c1nc2ccccc2[nH]1`, the cell number change is -99.4%. Also, under setting [2], the AC50 was 29.1 µM [falling, single point]. For the same compound, under setting [1], the AC50 is 29.1 µM [falling, single point].
Consider `COc1ccc(CNC(=O)c2cccs2)cc1`, for which the cell number change amounted to 3.51%.
Consider `CC(=O)c1ccc(OCCCC(=O)NC2CCCc3ccccc32)cc1` (stereo unspecified), for which the cell number change is 21%. Also, under setting [1], the AC50 was 29.1 µM [rising, single point].
`COc1ccc(S(=O)(=O)N2CCN(C(=O)[C@@H]3CCC(=O)N3C3OC(=O)c4ccccc43)CC2)cc1` (stereo partly specified): the cell number change was -40.7%. Further, the AC50 under setting [2] was 29.1 µM [falling, single point]. For the same compound, the concentration at half-maximal activity (AC50) under setting [1] was 29.1 µM [falling, single point].
On to `COc1ccc(NS(=O)(=O)c2ccc(N3CCN(CCO)CC3)c([N+](=O)[O-])c2)cc1`, for which the AC50 under setting [1] was 6.51 µM [falling, partial curve].
`CSCCC(NC(=O)c1ccc(C(C)(C)C)cc1)C(=O)O` (stereo unspecified): the cell number change is -91.2%. Moreover, under setting [2], the AC50 is 25.9 µM [falling, partial curve].
Regarding `CCC12CN(C(=O)c3ccc([N+](=O)[O-])cc3)CC(CC)(CN(C(=O)c3ccc([N+](=O)[O-])cc3)C1)C2=O`, the cell number change is -2.19%. Under setting [1], the half-maximal activity concentration (AC50) is 0.164 µM [falling, full curve, poor fit].
On to `Cc1ccc(-c2nn(CC(=O)NCc3cc(-c4nn(C)c(=O)c5ccccc45)ccc3C)c(=O)c3ccccc23)cc1`, for which the cell number change came out at 16.6%. Also, under setting [1], the AC50 was 23.1 µM [rising, partial curve, poor fit].
In the case of `CC(C)(C)c1ccc(C2(C)NC(=O)N(CC(=O)NC3CCS(=O)(=O)C3)C2=O)cc1` (stereo unspecified), the cell number change is -9%.
Consider `COc1ccc(CN=Cc2[nH]c3ccc(Br)c(Cl)c3c2O)cc1`, for which the cell number change turned out to be 73.7%. Besides, the concentration at half-maximal activity (AC50) under setting [2] is 10.3 µM [rising, partial curve].
Take `OC(COCc1ccc2c(c1)OCO2)CN1CCCCC1` (stereo unspecified): the cell number change is -31.8%. In addition, under setting [2], the half-maximal activity concentration (AC50) was 0.651 µM [falling, partial curve, poor fit]. Also, the half-maximal activity concentration (AC50) under setting [1] was 0.0326 µM [falling, full curve, poor fit].
Consider `O=C(COC(=O)c1cnccn1)Nc1c(Cl)cc(Cl)cc1Cl`, for which the cell number change amounted to 28.1%. In addition, the half-maximal activity concentration (AC50) under setting [1] is 6.51 µM [rising, single point].
Consider `COC(=O)c1ccc(CSc2n[nH]c(C)n2)o1`, for which the cell number change is -26.4%. For the same compound, the AC50 under setting [1] is 3.66 µM [falling, full curve].
`Cc1c(OCC(=O)NC(Cc2ccc(Cl)cc2)C(=O)O)ccc2c3c(c(=O)oc12)CCC3` (stereo unspecified): the cell number change is 38.5%. The AC50 under setting [2] was 5.17 µM [rising, partial curve, poor fit]. Besides, the half-maximal activity concentration (AC50) under setting [1] is 5.17 µM [rising, full curve].
